Experimental data as given in paper PMC7226152.
These are yes or no findings as the source states them, for the method shown. Some binding calls cover weakened binding; strength is not graded here.

The chains behind the UniProt entries cited, without tags or fusion partners.
UniProt P19338: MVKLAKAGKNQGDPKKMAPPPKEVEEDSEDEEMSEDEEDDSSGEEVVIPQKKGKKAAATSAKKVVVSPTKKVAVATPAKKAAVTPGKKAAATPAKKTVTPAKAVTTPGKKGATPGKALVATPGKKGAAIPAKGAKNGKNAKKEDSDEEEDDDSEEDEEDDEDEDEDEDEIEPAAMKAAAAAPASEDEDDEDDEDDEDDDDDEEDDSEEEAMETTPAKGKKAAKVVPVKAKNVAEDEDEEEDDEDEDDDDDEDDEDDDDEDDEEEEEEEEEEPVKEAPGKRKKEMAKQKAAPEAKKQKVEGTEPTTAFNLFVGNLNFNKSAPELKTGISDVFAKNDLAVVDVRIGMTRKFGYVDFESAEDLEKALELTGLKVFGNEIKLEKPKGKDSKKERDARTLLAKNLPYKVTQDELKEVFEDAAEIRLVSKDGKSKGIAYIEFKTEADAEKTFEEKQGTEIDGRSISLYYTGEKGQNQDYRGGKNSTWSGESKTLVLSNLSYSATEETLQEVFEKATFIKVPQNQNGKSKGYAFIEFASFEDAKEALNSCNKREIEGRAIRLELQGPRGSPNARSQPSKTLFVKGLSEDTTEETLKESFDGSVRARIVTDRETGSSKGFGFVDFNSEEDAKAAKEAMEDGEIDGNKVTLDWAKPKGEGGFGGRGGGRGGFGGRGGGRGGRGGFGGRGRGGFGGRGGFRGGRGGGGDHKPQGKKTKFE

Biological target: nucleolin (human (endogenous in N87, OCUM-1, KATO-III)) (UniProt P19338)
Assay: far-Western, overlay or dot blot; NCL immunoprecipitates blotted and screened for E-selectin affinity before and after neuraminidase digestion (negative control); Figure S4; method not described further; only the binder purified

binding: binds
B1: Recombinant Mouse E-Selectin Ig Chimera Protein (Fc fusion, UniProt Q00690 22-557)
chain: WYYNASSELMTYDEASAYCQRDYTHLVAIQNKEEINYLNSNLKHSPSYYWIGIRKVNNVWIWVGTGKPLTEEAQNWAPGEPNNKQRNEDCVEIYIQRTKDSGMWNDERCNKKKLALCYTASCTNASCSGHGECIETINSYTCKCHPGFLGPNCEQAVTCKPQEHPDYGSLNCSHPFGPFSYNSSCSFGCKRGYLPSSMETTVRCTSSGEWSAPAPACHVVECEALTHPAHGIRKCSSNPGSYPWNTTCTFDCVEGYRRVGAQNLQCTSSGIWDNETPSCKAVTCDAIPQPQNGFVSCSHSTAGELAFKSSCNFTCEQSFTLQGPAQVECSAQGQWTPQIPVCKAVQCEALSAPQQGNMKCLPSASGPFQNGSSCEFSCEEGFELKGSRRLQCGPRGEWDSKKPTCSAVKCDDVPRPQNGVMECAHATTGEFTYKSSCAFQCNEGFSLHGSAQLECTSQGKWTQEVPSCQVVQCPSLDVPGKMNMSCSGTAVFGTVCEFTCPDDWTLNGSAVLTCGATGRWSGMPPTCEAPVSPTRP
